Record: PubChem BioAssay AID1159578 (Peter MacCallum Cancer Centre, 2015)
Aim: 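Genome-wide hunt for genes controlling movement of lymphatic endothelial cells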 (primary screen). Cell system: human lymphatic endothelial cells. Knock-down reagent: siRNA pool against human genes, 40 nM. Timing: 48 h after transfection. Detection: 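High-content imaging of dye-stained cells in a scratch assay measures filled wound area and nuclei per well; duplicate means given as ratio to mock and robust z-score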. Direction: migration robust z-score: higher = faster migration into the scratch; nuclei per well: higher = more cells in the well. Call rule: 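Pools averaging fewer than 3300 nuclei are never called; remaining pools count as changed when migration robust z lies outside -2 to 2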. Calls: active = migration changed; inactive = no migration change, or too few cells.
The whole screen tested about 18,000 reagents; below is a random part of them. About 1,030 of all reagents (5.7%) count as active. 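Inactive calls also include pools with fewer than 3300 nuclei, whose migration was not assessed.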 Raw values are not corrected between plates. Unmarked entries are inactive. Not all columns of the deposit are shown. Reagent sequences are not shown.

TSGA10IP → migration robust z-score: -0.75; migration class with cell-count check: migration z between -2 and 2; enough cells; nuclei per well, duplicate mean: 7210
MMP23B → migration robust z-score: -0.8; migration class with cell-count check: migration z between -2 and 2; enough cells; nuclei per well, duplicate mean: 5778
DDAH1 → migration robust z-score: -1.5; migration class with cell-count check: migration z between -2 and 2; enough cells; nuclei per well, duplicate mean: 5723
ZPBP → migration robust z-score: -0.05; migration class with cell-count check: migration z between -2 and 2; enough cells; nuclei per well, duplicate mean: 4884
CCDC25 → migration robust z-score: -1.35; migration class with cell-count check: migration z between -2 and 2; enough cells; nuclei per well, duplicate mean: 5848
SCCPDH → migration robust z-score: 0.88; migration class with cell-count check: migration z between -2 and 2; enough cells; nuclei per well, duplicate mean: 5686
TMEM145 → migration robust z-score: 2.47 (active); migration class with cell-count check: migration z above 2; enough cells; nuclei per well, duplicate mean: 7144
DEFA1 → migration robust z-score: -0.63; migration class with cell-count check: migration z between -2 and 2; enough cells; nuclei per well, duplicate mean: 5112
FHDC1 → migration robust z-score: 1.4; migration class with cell-count check: migration z between -2 and 2; enough cells; nuclei per well, duplicate mean: 6618
MEI1 → migration robust z-score: -0.78; migration class with cell-count check: migration z between -2 and 2; enough cells; nuclei per well, duplicate mean: 6466
NAA16 → migration robust z-score: 0.36; migration class with cell-count check: migration z between -2 and 2; enough cells; nuclei per well, duplicate mean: 5956
NEU3 → migration robust z-score: 0.44; migration class with cell-count check: migration z between -2 and 2; enough cells; nuclei per well, duplicate mean: 5242
CCDC18 → migration robust z-score: 2.66 (active); migration class with cell-count check: migration z above 2; enough cells; nuclei per well, duplicate mean: 6092
FBXO39 → migration robust z-score: 0.67; migration class with cell-count check: migration z between -2 and 2; enough cells; nuclei per well, duplicate mean: 5426
MSRB1 → migration robust z-score: -0.94; migration class with cell-count check: migration z between -2 and 2; enough cells; nuclei per well, duplicate mean: 3611
LYSMD2 → migration robust z-score: 0.75; migration class with cell-count check: migration z between -2 and 2; enough cells; nuclei per well, duplicate mean: 7613
AGL → migration robust z-score: -2.54; migration class with cell-count check: under 3300 nuclei; migration not judged; nuclei per well, duplicate mean: 3070
MKRN2 → migration robust z-score: 0.39; migration class with cell-count check: migration z between -2 and 2; enough cells; nuclei per well, duplicate mean: 5090
PDE1A → migration robust z-score: -0.36; migration class with cell-count check: migration z between -2 and 2; enough cells; nuclei per well, duplicate mean: 4798
TMEM196 → migration robust z-score: 1.06; migration class with cell-count check: migration z between -2 and 2; enough cells; nuclei per well, duplicate mean: 7102
CLEC5A → migration robust z-score: 0.34; migration class with cell-count check: migration z between -2 and 2; enough cells; nuclei per well, duplicate mean: 6048

Sorted by “migration robust z-score” (low to high): 2 of the entries above.
DDAH1 → migration robust z-score: -1.5; migration class with cell-count check: migration z between -2 and 2; enough cells; nuclei per well, duplicate mean: 5723
ZPBP → migration robust z-score: -0.05; migration class with cell-count check: migration z between -2 and 2; enough cells; nuclei per well, duplicate mean: 4884
